The structures appear in SMILES notation.

Here are results for 1 compound from paper PMC4398322, “Snake neurotoxin α-bungarotoxin is an antagonist at native GABAA receptors” (Neuropharmacology, 2015).

The subject of this assay is native hippocampal GABAARs. The assay is classed as cell-based, rat. The settings on record: read-out: GABA EC50. Here is the method:
Dissociated hippocampal neurons were prepared from embryonic day 18 rat pups as described ([Hannan et al., 2012]). Briefly, hippocampi were dissected in ice-cold Hank's Balanced Salt Solution (HBSS) (Ca^2+/Mg^2+ free) before enzymatic dissociation in 0.1% (w/v) trypsin at 37 °C for 10 min followed by serial washes in pre-warmed HBSS to remove trypsin prior to trituration. Cells were mechanically dissociated using fire-polished glass Pasteur pipettes in plating medium composed of minimal essential medium (MEM) supplemented with 5% (v/v) fetal calf serum (FCS), 5% (v/v) horse serum, penicillin-G and streptomycin (200 units/ml and 200 μg/ml), 2 mM L-glutamine and 35 mM glucose. Cells were plated at a density of 10^6 per ml in plating medium on glass cover-slips previously coated with poly-D-lysine. […]
Patch electrodes had resistances of 4–5 MΩ and were filled with an internal solution containing (mM): 120 CsCl 1 MgCl2, 11 EGTA, 30 KOH, 10 HEPES, 1 CaCl2, and 2 K2ATP; pH – 7.2. […] Neuronal membrane currents were similarly recorded at a holding potential of −60 mV.
Spontaneous inhibitory postsynaptic currents (IPSCs) were recorded from dentate gyrus granule cells (DGGCs) with the same internal solution as above. Cells were voltage clamped at −60 mV and IPSCs were recorded using 5 kHz filtering with optimal series resistance and whole-cell capacitance compensation.

With `NCCCC(=O)O` [GABA, γ-aminobutyric acid], the concentration giving a half-maximal response (EC50) came out at 1230 ± 40 nM.

For orientation: EC50 means the concentration giving half of the maximal effect.
